Source: US20210009707A1
No constants are given. Whether binding was seen depends on the method and setting. Some results given as binding are weak or reduced against the parent protein; the word gives no strength.

Protein sequences, listed by entry. Tags and fused reporters are not part of them. Lines headed by an entry give the natural chain unless they say otherwise; changes in a name come on top.
UniProt O60603: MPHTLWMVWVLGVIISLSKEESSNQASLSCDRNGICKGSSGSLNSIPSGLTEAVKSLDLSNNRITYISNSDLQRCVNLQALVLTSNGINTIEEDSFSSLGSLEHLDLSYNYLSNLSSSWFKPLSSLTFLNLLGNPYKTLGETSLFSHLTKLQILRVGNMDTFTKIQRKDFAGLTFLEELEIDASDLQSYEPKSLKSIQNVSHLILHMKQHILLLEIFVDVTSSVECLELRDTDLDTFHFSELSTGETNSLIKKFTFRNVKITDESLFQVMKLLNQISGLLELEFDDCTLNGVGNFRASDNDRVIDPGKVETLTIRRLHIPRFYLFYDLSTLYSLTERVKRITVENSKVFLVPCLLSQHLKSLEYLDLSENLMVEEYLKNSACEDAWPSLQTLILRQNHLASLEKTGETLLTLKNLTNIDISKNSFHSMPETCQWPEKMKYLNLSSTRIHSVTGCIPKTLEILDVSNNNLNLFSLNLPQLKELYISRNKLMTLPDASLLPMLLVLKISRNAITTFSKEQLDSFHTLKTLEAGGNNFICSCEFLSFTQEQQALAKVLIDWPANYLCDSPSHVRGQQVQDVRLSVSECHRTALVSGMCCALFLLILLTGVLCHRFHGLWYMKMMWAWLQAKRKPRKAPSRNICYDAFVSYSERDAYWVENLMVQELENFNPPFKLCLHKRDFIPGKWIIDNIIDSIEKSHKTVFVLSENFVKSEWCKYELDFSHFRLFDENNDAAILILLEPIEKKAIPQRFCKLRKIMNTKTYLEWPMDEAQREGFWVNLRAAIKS

Tests used:
[1] = target: Toll-like Receptor 2 (human TLR2) (human) (UniProt O60603); assay: TLR2 receptor occupancy in patients' blood (PBMCs) at trough (pre-dose) during repeat IV dosing of OPN-305 every four weeks, by week of dosing
[2] = target: Toll-like Receptor 2 (human TLR2) (human) (UniProt O60603); assay: receptor occupancy on patient blood PBMCs and bone marrow aspirates after IV dosing
[3] = target: Toll-like Receptor 2 (human TLR2) (human) (UniProt O60603); assay: TLR2 blood receptor occupancy after single IV dose in patients
[4] = target: Toll-like Receptor 2 (human TLR2) (human) (UniProt O60603); assay: TLR2 receptor occupancy in patients, told in the conclusion
[5] = target: Toll-like Receptor 2 (human TLR2) (human) (UniProt O60603); assay: TLR2 receptor occupancy in patients' bone marrow aspirates after repeat IV dosing of OPN-305, at predose, week 8 and week 16
[6] = target: Toll-like Receptor 2 (human TLR2) (human) (UniProt O60603); assay: TLR2 receptor occupancy in patients' blood (PBMCs) after a single IV dose of OPN-305, over time after dose (days)
[7] = target: Toll-like Receptor 2 (human TLR2) (human) (UniProt O60603); assay: TLR2 bone marrow receptor occupancy after repeat dosing in patients

Measured: binding

B1: OPN-305 (antibody, human IgG4 S228P, kappa, V domains shown)
VH: QVQLVQSGSELKKPGASVKLSCKASGFTFTTYGINWVRQAPGQGLEWIGWIYPRDGSTNFNENFKDRATITVDTSASTAYMELSSLRSEDTAVYFCARLTGGTFLDYWGQGTTVTVSS
VL: DIVLTQSPATLSLSPGERATLSCRASESVEYYGTSLMQWYQQKPGQPPKLLIFGASNVESGVPDRFSGSGSGTDFTLKISRVEAEDVGMYFCQQSRKLPWTFGGGTKVEIKR
binds: all assays above
